These are yes or no findings as the source states them, for the method shown. Binding can be weak; no strength is given. Sequences can lack the tags named with a protein.

Here are results for one molecule from patent US20210283233A1.

The target of assay [1] is RAP-1, yeast two-hybrid prey. Kind of assay: yeast two-hybrid and immunoprecipitation screens.
The target in assay [2] is RhopH3, yeast two-hybrid prey. The experiment in a line: yeast two-hybrid and immunoprecipitation screens.

B1: PfSEP-1A yeast two-hybrid bait (rPfSEP-1A region, aa 810-1083, as fusion with truncated transcription factor) (protein)
chain: NEDRGIYDELLENDMCDLYNLKMHDLHNLKSYDFGLSKDLLKKDIFIYSNNLKNDDMDDDDNNNMNDIAIGENVIYENDIHENNIDDNDMYNNYVNGNDLYINNMQDDAMDDIVYDEEEIKSFLDKLKSDISNQMNVKNGNVEVTGNGGNEEMSYINNDENLQAFDLLDNFHMDDYGNNYNDNEEDGDGDGDDDEQKKRKQKELHNVNGKLNLSDLNELNVDDINNNFYMSTPRKSIDERKDTECQTDFPLLDVSRNTNRTPRRKSVEVILVE
For B1, the binding entry in assay [1] and in assay [2] was “binds” throughout.
